Experimental data published in PubChem BioAssay AID2685 (National Center for Advancing Translational Sciences (NCATS), 2010).
The list shows a part of the results. Further columns of the screen follow, without active or inactive calls. Most of these compounds were active or inconclusive in the main read-out, so they are no random draw. The note in brackets gives the kind of curve behind each potency; many fits are weak.

Experiment: qHTS Assay for Lipid Storage Modulators in Drosophila S3 Cells;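 on cell number change: cells counted by Cell Tracker Red CMTPX staining in the red channel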
Settings: BODIPY lipid droplet fluorescence, 18-24 h; for cell number change: measured here: cell count max response, cells fed with added oleic acid
In short: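 Laser-scanning cytometry quantifies lipid droplet accumulation (500–530 nm total intensity; droplet/cell object ratio) in oleic acid-fed (400 uM added) Drosophila S3 cells treated with a concentration series. 20 uM Triacsin C defined 100% inhibition.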

[1] = measured here: lipid fluorescence (Fed channel) AC50, cells fed with added oleic acid
[2] = measured here: cell number channel AC50, cells fed with added oleic acid

| SMILES | cell number change [%] | AC50 [1] | AC50 [2] |
| --- | --- | --- | --- |
| COc1ccccc1N1CCN(C(=O)C(CC(C)C)NC(=O)C2CCCCC2)CC1 (configuration not stated) | 8.26 | 0.58 µM [falling, single point] |  |
| Cc1ccccc1NS(=O)(=O)c1ccc(C(=O)NCC(C)(C)N2CCOCC2)cc1 | -21.6 | 6.51 µM [rising, partial curve, poor fit] |  |
| Cc1ccc(N(CCC#N)C(=O)CSc2ccc3c(c2)OCCO3)cc1 | 52.6 |  | 29.1 µM [rising, single point] |
| Cc1cc(C)c(S(=O)(=O)N2CCCCC2)c(C)c1N(C)S(=O)(=O)c1ccccc1 | -13.9 | 8.2 µM [falling, single point] |  |
| Cc1oc(-c2ccccc2)nc1C(=O)OCC(=O)NCc1ccc(Cl)cc1 | -41.8 | 1.03 µM [rising, full curve, poor fit] | 20.6 µM [falling, partial curve] |
| O=C1c2ccccc2C(=O)N1CCc1nn[nH]n1 | -28.6 | 0.411 µM [falling, full curve] |  |
| COCc1c(C(=O)Nc2nc(C)cs2)oc2ccccc12 |  | 29.1 µM [rising, partial curve] |  |
| COc1ccc(N(C(=O)C(C)C)S(=O)(=O)c2ccc3c(c2)n(C)c(=O)n3C)cc1 | 43 | 1.16 µM [rising, partial curve, poor fit] | 0.58 µM [rising, full curve] |
| Cc1cc(C(=O)OCCO)c(C#N)c(N)n1 | -2.35 | 2.06 µM [falling, partial curve] |  |
| COc1ccc(-c2cc(-c3ccccc3)nc(SC(C)C(=O)O)c2C#N)cc1 (configuration not stated) | -42 |  | 5.8 µM [falling, partial curve] |
| COC(=O)c1ccccc1NC1=C/C(=N\S(=O)(=O)c2ccc(C(=O)O)cc2)c2ccccc2C1=O | -16.2 | 6.51 µM [rising, single point] |  |
| COc1ccccc1N(C(=O)c1ccco1)C(C(=O)NC1CCCC1)c1cccs1 (configuration not stated) | 7.69 |  |  |
| COCCNC(=O)C(c1ccc(C)o1)N(C(=O)c1snc(C(N)=O)c1N)c1ccc(C)cc1 (configuration not stated) | -38.9 |  | 2.31 µM [falling, partial curve] |
| CCc1ccccc1OCC(=O)Nc1ccc(N2CCCC2)cc1C | 85.5 |  | 5.17 µM [rising, full curve] |
| Cc1cccc2c(CC(=O)Nc3ccccc3)noc12 | 12.5 | 6.51 µM [rising, single point] |  |
| Cn1c(SCC(=O)NC(C)(C)C)nnc1-c1ccc(C(C)(C)C)cc1 | -44.5 | 18.4 µM [falling, partial curve] | 11.6 µM [falling, partial curve] |
| COc1ccc(Cc2nnc(SCC(=O)N(C)c3ccccc3)o2)cc1 |  | 2.91 µM [rising, full curve, poor fit] |  |
| N/C(=N\OC(=O)c1cc(Br)ccc1Cl)c1ccccn1 | 33.4 |  | 29.1 µM [rising, single point] |
| CCC1=C/C(=C/N(C)c2ccccc2)C(=O)S1 | 4.58 | 0.103 µM [falling, full curve, poor fit] |  |
| CCOc1ccc(N2CC(C(=O)Nc3ccccc3N3CCCC3)CC2=O)cc1 (configuration not stated) | 31 | 9.2 µM [rising, partial curve] | 9.2 µM [rising, partial curve, poor fit] |
| COc1ccc(S(=O)(=O)N(C)Cc2ccc3c(c2)OCCO3)cc1 | 1.17 | 14.6 µM [rising, partial curve, poor fit] |  |

Structures above that have a cyano group:

| SMILES | cell number change [%] | AC50 [1] | AC50 [2] |
| --- | --- | --- | --- |
| Cc1ccc(N(CCC#N)C(=O)CSc2ccc3c(c2)OCCO3)cc1 | 52.6 |  | 29.1 µM [rising, single point] |
| Cc1cc(C(=O)OCCO)c(C#N)c(N)n1 | -2.35 | 2.06 µM [falling, partial curve] |  |
| COc1ccc(-c2cc(-c3ccccc3)nc(SC(C)C(=O)O)c2C#N)cc1 (configuration not stated) | -42 |  | 5.8 µM [falling, partial curve] |

Continuation.

| SMILES | cell number change [%] | AC50 [1] | AC50 [2] |
| --- | --- | --- | --- |
| O=Cc1ccccc1-n1cncn1 | 5.85 | 2.31 µM [falling, single point] | 0.366 µM [falling, single point] |
| CCCCOc1ccc2ccccc2c1C=O |  |  | 2.06 µM [rising, single point] |
| CCCn1c(SCC(=O)Nc2ccc(Cl)cc2)n[nH]c1=O | -2.28 |  | 6.51 µM [rising, single point] |
| COC(=O)/C=C1/S/C(=N/NC(=O)c2ccc(OC)cc2)NC1=O | 3.36 |  |  |
| S=C1NC2(CCS1)Oc1ccccc1C1CC(c3ccccc3)=NN12 (configuration not stated) | 5.56 |  |  |
| CN(C)CCCN(C(=O)c1ccc(S(=O)(=O)N2CCCCCC2)cc1)c1nc2cc3c(cc2s1)OCCO3 | 41.1 |  | 7.31 µM [rising, partial curve, poor fit] |
| CC1CCCCN1CCNC(=O)c1ccc2c(=O)n(CCc3ccccc3)c(=O)[nH]c2c1 (configuration not stated) | 22.6 |  |  |
| CNC(=S)N(CCc1c(C)[nH]c2ccc(Cl)cc12)Cc1cccs1 | 14.6 |  |  |
| Oc1[nH]c2ccccc2c1/C=N/N1CCCCC1 | -25 | 29.1 µM [falling, single point] |  |
| O=C(CNC(=O)c1ccccc1Br)N/N=C/c1ccco1 | 45.8 | 29.1 µM [falling, single point] | 0.366 µM [rising, full curve] |
| CC(C)(CNC(=O)c1ccc(S(=O)(=O)Nc2ccc(Cl)cc2)cc1)N1CCOCC1 | -16.2 | 0.651 µM [falling, single point] |  |
| Cc1noc(NS(=O)(=O)c2ccc(NC(=O)c3ccc(N4C(=O)c5ccccc5C4=O)cc3)cc2)c1C | -14.9 |  | 0.291 µM [falling, partial curve, poor fit] |
| O=C(CN(C(=O)CNC(=O)c1ccco1)c1ccc2c(c1)OCCO2)NC1CCCCC1 | 34 |  | 29.1 µM [rising, partial curve, poor fit] |
| O=C(C1CCN(S(=O)(=O)c2cccnc2)CC1)N1CCN(C2CCCC2)CC1 | -16.4 | 0.291 µM [falling, full curve, poor fit] |  |
| O=C(C1CCC1)N1CCN(c2cccc(C(F)(F)F)c2)CC1 | -6.91 | 29.1 µM [falling, single point] |  |
| O=C1CCCC2=C1C1(CCCC1)N=C(Nc1nc3ccccc3o1)N2 | -11.8 | 1.03 µM [rising, single point] |  |
| CCOc1ccc(CCNC(=O)CSc2cc(=O)n(C)c3ccccc23)cc1OCC | -19.3 |  |  |
| O=C(c1ccc(Cl)c(S(=O)(=O)Nc2ccc(F)cc2)c1)N1CCN(c2ccccn2)CC1 | -35.3 | 14.6 µM [falling, partial curve] | 11.6 µM [falling, partial curve] |
| COc1ccc(CCN(C)C(=O)c2cc(S(=O)(=O)N3CCCCC3)ccc2Cl)cc1OC | -16.7 | 6.51 µM [rising, single point] |  |
| CN(C)CCNC(=O)c1cc2c(s1)-c1ccc(Cl)cc1SC2 | -97.2 | 20.6 µM [falling, single point] | 29.1 µM [falling, single point] |
| CC(=O)Nc1ccc(S(=O)(=O)N2CCc3c(Cl)cccc3C2)cc1 | 2.17 |  |  |

| SMILES | cell number change [%] | AC50 [1] | AC50 [2] |
| --- | --- | --- | --- |
| CCC1Oc2ccccc2N(CC(=O)NCCCN2CCN(CC)CC2)C1=O (configuration not stated) |  | 1.64 µM [rising, full curve, poor fit] |  |
| O=c1[nH]c(C2CCN(S(=O)(=O)/C=C/c3ccccc3)CC2)nc2c1nnn2Cc1ccccc1 | -1.32 |  |  |
| CCOc1c(CNCCNC(=O)c2nonc2N)cccc1OC | 7.32 |  |  |
| CCN(CC)S(=O)(=O)c1ccc2[nH]c(=O)cc(C(=O)NCC(c3ccco3)N3CCCC3)c2c1 (configuration not stated) | -14 | 3.26 µM [falling, full curve, poor fit] |  |
| CCc1cc2cc(C)ccc2nc1SCC(=O)NNC(=O)c1ccco1 | 169 |  | 29.1 µM [rising, single point] |
| CCN(CC)c1ccc(/C=N/N2CCN(c3ccccc3OC)CC2)cc1 | -32.8 | 29.1 µM [falling, single point] | 11.6 µM [falling, single point] |
| N#Cc1c(N)nc2c(c1N)CC(CCl)O2 (configuration not stated) | 3.21 |  |  |
| CCCCOc1ccc(C(=O)N2CCN(c3ncccn3)CC2)cc1 | 23.4 | 2.91 µM [rising, full curve] |  |
| CCN1C(=S)SC(=O)C1=C1C=C(C)OC(C)=C1 | -0.506 | 0.00461 µM [falling, full curve, poor fit] |  |
| CC(=O)c1cn(C(=O)c2ccc(Cl)cc2)c2ccccc12 | -24.8 | 6.51 µM [falling, single point] |  |
| O=C1CC(NCc2ccc(F)cc2)C(=O)N1c1ccccc1 (configuration not stated) | 21.3 |  |  |
| Cc1cc(C)c(C(=O)O)c(CC(C)(C)C(=O)O)c1 | -39 | 29.1 µM [falling, single point] | 29.1 µM [falling, single point] |
| Cc1nn(-c2ccccc2)c2sc(C(=O)NC3CCCCC3)cc12 | -5.07 | 1.64 µM [rising, partial curve] |  |
| CCOC(=O)Cc1nnc(NC(=O)CSc2nnc3c4ccccc4n(C)c3n2)s1 | -20.4 |  |  |
| CN(C(=O)CSc1nc2ccc(Br)cc2c(=O)n1Cc1ccco1)C1CCS(=O)(=O)C1 (configuration not stated) | -41.2 | 18.4 µM [falling, single point] | 16.4 µM [falling, single point] |
| COC(=O)C1CCC(=S)N1C(=O)c1ccccc1 (configuration not stated) | 4.11 |  |  |
| Cc1ccc(N=C2SCCCN2C(=O)c2ccco2)cc1Cl | 9.54 | 5.8 µM [falling, single point] |  |
| Cn1nc(-c2ccc(Cl)cc2)c2cc(C(=O)NCC3CCCO3)sc21 (configuration not stated) | 9.37 |  |  |
| CC(CCc1ccccc1)NC(=O)CCN1N=C(c2ccccc2)CCC1=O (configuration not stated) | 7.45 |  | 0.461 µM [falling, single point] |
| CC1=CN2C(=NC(=O)CC2(C)C(=O)N(CC(=O)NC2CCCC2)Cc2ccc(Cl)cc2)C=C1 (configuration not stated) | -14.3 | 0.206 µM [rising, single point] |  |
